The labels stand for the following.
B1: 2PE43 (VHH)
VHH: QVQLQESGGGLVQPGGSLTLACKGSGVELSRSAMAWYQQAPGKRRDWVAGITSSGVTQYPDSVKGRFTISRDNAKNTVYLQMNSLKPEDAAVYYCNLWPPRASPSGRIYWGQGTQVTVSS
B2: 2PE28 (VHH)
VHH: QVQLQESGGGLVQIGGSLRLSCADSGSTFSINNAMGWYRQAPGKRRDWVAGITSSGVTNYPDSVKGRFTISRDNAKNTVYLQMNSLKPEDTAVYYCNLWPPRASPSGTIYWGQGTQVTVSS
B3: 2PE87 (VHH)
VHH: QVQLQESGGGLVQVGGSLRLSCAASGSTFSINNAMGWYRQAPGKRREWVAGISSGGVTHYPDSVKGRFTISRDNAKNIVYLQMDSLKPEDTAAYYCNLWPPRASPSGSIYWGQGTQVTVSS
B4: 2PE47 (VHH)
VHH: QVQLQESGGGLVQVGGSLRLSCAASGSTFSINNAMGWYRQAPGKRREWVAGISSGGVTHYPDSVKGRFTISRDNAKNIVYLQMDSLKPEDTAVYYCNLWPPRASPSGSIYWGQGTQVTVSS
B5: 2PE63 (VHH)
VHH: QVQLQESGGGLVQVGGSLRLSCAASGSTFSINNAMGWYRQAPGKRREWVAGISSGGVTHYPDSVKGRFTISRDNAKNIVYLQMNSLKPEDTAVYYCNLWPPRASPSGSIYWGQGTQVTVSS
B6: 2PE30 (VHH)
VHH: QVQLQESGGGLVQVGGSLRLSCADSGSTFSINNAMGWYRQAPGKRRDWVAGITSSGVTNYPDSVKGRFTISRDNAKNTVYLQMNSLKPEDTAVYYCNLWPPRASPSGRIYWGQGTQVTVSS
B7: 2PE76 (VHH)
VHH: QVQLQESGGGLVQVGGSLRLSCAASGSTFSINNAMGWYRQAPGKRREWVAGISSGGVTHYPDSVKGRFAISRDNAKNIVYLQMDSLKPEDTAVYYCNLWPPRASPSGSIYWGQGTQVTVSS
B8: 2PE62 (VHH)
VHH: QVQLQESGGGLVQAGGSLRLSCADSSGSTFSINAMAWYRQAPGKRRDWVAGITSDSVTKYPDSVKGRFTISRDNAKNTVYLQMNSLKPEDTAVYYCNLWPPRASPSGRIDWGQGTQVTVSS
B9: 2PE25 (VHH)
VHH: QVQLQESGGGLVQVGGSLRLSCAASGSSFIINAMGWYRQAPGKRRELVAGISSDGATHYPDSVKGRFTISRDNAKNIVYLQMNSLKPEDTAVYYCNLWPPRASPSGRVYWGQGTQVTVSS
B10: 2PE13 (VHH)
VHH: QVQLQESGGGLVQVGGSLRLSCAASGSTFILNAMAWYRQAPGNRRELVAGISSGGDTNYPDSVKGRFTISRDNANNIVYLQMNSLKLEDTAVYYCNLWPPRASPSGRVYWGQGTQVTVSS
B11: 2PE32 (VHH)
VHH: QVQLQESGGGLVQVGGSLRLSCAASGSTFSINAMGWYRQAPGKRRELVAGISSDDITYYPDSVKGRFTISRDNAKNTVYLQMNSLKPEDTAVYYCNLWPPRASPSGRGYWGQGTQVTVSS
B12: 2PE67 (VHH)
VHH: QVQLQESGGGLVQVGGSLRLSCAASGSTFILNAMGWYRQAPGNRRELVAGISSGGDTNYPDSVKGRFTISRDNANNIVYLQMNSLKLEDTAVYYCNLWPPRASPSGRPYWGQGTQVTVSS
B13: 2PE71 (VHH)
VHH: QVQLQESGGGMVQSGRSLRLSCLASVNIVNLNSVGWYRQAPGQQRELVASITSAGSTNYAESVKGRFTISRDNSKNTVYLQMNSLKPSDTAVYYCNLWPPRVSPSGRGYWGQGTQVTVSS
B14: 2PE2 (VHH)
VHH: QVQLQESGGGSVQVGGSLRLSCADSGSTFTINAMGWYRQAPGKRRDWVAGITSSGVTQYPDSVKGRFTISRDNAKNTVYLQMNSLKPEDTAVYYCNLWPPRASPSGRIYWGQGTQVTVSS
B15: 2PE7 (VHH)
VHH: QVQLQESGGGLVHAGGSLRLSCADSGSTFSVNAVGWYRQAPGKRRDWVAGITSDGVTNYPDSVKGRFTISRDNAKNTVYLQMNSLKPEDTAVYYCNLWPPRASPSGRIYWGQGTQVTVSS
B16: 2PE39 (VHH)
VHH: QVQLQESGGGLVQVGGSLRLSCADSGSTFSVNAVGWYRQAPGKRRDWVAGITSDGVTNYPDSVKGRFTISRDNAKNTVYLQMNSLKPEDTAVYYCNLWPPRASPSGRIYWGQGTQVTVSS
B17: 2PE41 (VHH)
VHH: QVQLQESGGGLVQVGGSLRLSCADSGSTFSINSMGWYRQAPGKHRDWVAGITTDGITKYPDSLKGRFTISRDNAKNTVYLQMNSLKPEDTAVYYCNLWPPRASPSGRLYWGQGTQVTVSS
B18: 2PE58 (VHH)
VHH: QVQLQESGGGLVQVGGSLRLSCAASGSTFSINAMGWYRQAPGKRREWVAGISSSGPPHYPDSVKGRFTISRDNAKNTVYLQMNSLKPEDTAVYYCNLWPPMASPSGAIYWGQGTQVTVSS
B19: 2PE33 (VHH)
VHH: QVQLQESGGGLVQPGGSLRLSCADSGSTFSINSMGWYRQAPGKRRDWVAGITTDGITKYPDSLKGRFTISRDNAKNTVYLQMNSLKPEDTAVYYCNLWPPRASPSGRLYWGQGTQVTVSS
B20: 2PE86 (VHH)
VHH: QVQLQESGGGLVQVGGSLRLSCADSGSTFSINAMGWYRQAPGKRRDWVAGITSDGVTKYPDSVKGRFTISRDNAKNTVYLQMNSLKPEDTAVYYCNLWPPRVSPSGRIYWGQGTQVTVSS
B21: 2PE56 (VHH)
VHH: QVQLQESGGGLVQPGGSLRLSCADSGSTFTINAMGWYRQAPGKRRDWVAGITSSGVTQYPDSVKGRFTISRDNAKNTVYLQMNSLKPEDTAVYYCNLWPPRASPSGRIYWGQGTQVTVSS
B22: 2PE83 (VHH)
VHH: QVQLQESGGGLVQVGGSLRLSCADSGSTFSINSMGWYRQAPGKRRDWVAGITTDGITKYPDSLKGRFTISRDNAKNTVYLQMNSLKPEDTAVYYCNLWPPRASPSGRLYWGQGTQVTVSS
B23: 2PE27 (VHH)
VHH: QVQLQESGGGLVQPGGSLRLSCAASGSISSINAMAWYRQAPGKRRELVAGIDGGGVTNYPDSVKGRFTISRDNAKNTVYLQMSSLKPEDTAVYYCNLWPPRASPGGRVYWGQGTQVTVSS
B24: 2PE68 (VHH)
VHH: QVQLQESGGGLVQPGGSLRLSCAASGSIFSTNAMAWYRQAPGKRRELVAGISGGGVTNYPDSVKGRFTISRDNAKNTVYLQMSSLKPEDTAVYYCNLWPPRAPPDGRVYWGQGTQVTVSS
B25: 2PE59 (VHH)
VHH: QVQLQESGGGLVQPGGSLRLSCAVSGSIFSLNAMAWYRQAPGKRRELVAGISGGSVTNYPDSVKGRFTISRDSTKNTVYLQMSSLKPEDTAVYYCNLWPPRASPGGRVYWGQGTQVTVSS
B26: 2PE5 (VHH)
VHH: QVQLQESGGGLVQPGGSLRLSCAASESTFSINAVAWYRQAPGKRRELVAGISGGGVTSYPDSVKGRFTISRDNAKNIVYLQMSSLKPEDTAVYYCNLWPPRASPGGRVYWGQGTQVTVSS
B27: 2PE72 (VHH)
VHH: QVQLQESGGGLVQPGGSLRLSCAASGSISSINAMAWYRQAPGRRRELVAGIDGGGVTNYPDSVKGRFTISRDHAKNTVYLQMSSLKPEDTAVYYCNLWPPRASPGGRVYWGQGTQVTVSS
B28: 2PE60 (VHH)
VHH: QVQLQESGGGLVQPGGSLRLSCAASGSTFSINAMAWYRQAPGKRRELVAGISGGGVTNYPDSVKGRFTISRDNAKNTVYLQMSSLKPEDTAVYYCNLWPPRASPGGRVYWGQGTQVTVSS
B29: 2PE49 (VHH)
VHH: QVQLQESGGGLVQAGGSLRLSCTASGSISSINAMAWYRQAPGKRRELVAGIDGGGVTNYPDSVKGRFTISRDNAKNTVYLQMSSLKPEDTAVYYCNLWPPRASPGGRVYWGQGTQVTVSS
B30: 2PE29 (VHH)
VHH: QVQLQESGGGLVQPGGSLRLSCAASGSTSSINAMAWYRQAPGKRRELVAGIDGGGVTNYPDSVKGRFTISRDNAKNTVYLQMSSLKPEDTAVYYCNLWPPRASPGGRVYWGQGTQVTVSS
B31: 2PE55 (VHH)
VHH: QVQLQESGGGLVQPGGSLRLSCAASESTFSINAVAWYRQAPGKRRELVAGISGGGVTNHPDSVKGRFTISRDNAKNIVYLQMSSLKPEDTAVYYCNLWPPRASPGGRVYWGQGTQVTVSS
B32: 2PE84 (VHH)
VHH: QVQLQESGGGLVQAGGSLRLSCAASGSISSLNAMGWYRQAPGKQREWVAGITSGGSTNYADSVKGRFTILRDNAKNTVYLQMSSLKFEDTAVYYCNLWPPRASPSGAVYWGQGTQVTVSS

Protein sequences, listed by entry. Tags and fused reporters are not part of them. Lines headed by an entry give the natural chain unless they say otherwise; changes in a name come on top.
UniProt Q12884: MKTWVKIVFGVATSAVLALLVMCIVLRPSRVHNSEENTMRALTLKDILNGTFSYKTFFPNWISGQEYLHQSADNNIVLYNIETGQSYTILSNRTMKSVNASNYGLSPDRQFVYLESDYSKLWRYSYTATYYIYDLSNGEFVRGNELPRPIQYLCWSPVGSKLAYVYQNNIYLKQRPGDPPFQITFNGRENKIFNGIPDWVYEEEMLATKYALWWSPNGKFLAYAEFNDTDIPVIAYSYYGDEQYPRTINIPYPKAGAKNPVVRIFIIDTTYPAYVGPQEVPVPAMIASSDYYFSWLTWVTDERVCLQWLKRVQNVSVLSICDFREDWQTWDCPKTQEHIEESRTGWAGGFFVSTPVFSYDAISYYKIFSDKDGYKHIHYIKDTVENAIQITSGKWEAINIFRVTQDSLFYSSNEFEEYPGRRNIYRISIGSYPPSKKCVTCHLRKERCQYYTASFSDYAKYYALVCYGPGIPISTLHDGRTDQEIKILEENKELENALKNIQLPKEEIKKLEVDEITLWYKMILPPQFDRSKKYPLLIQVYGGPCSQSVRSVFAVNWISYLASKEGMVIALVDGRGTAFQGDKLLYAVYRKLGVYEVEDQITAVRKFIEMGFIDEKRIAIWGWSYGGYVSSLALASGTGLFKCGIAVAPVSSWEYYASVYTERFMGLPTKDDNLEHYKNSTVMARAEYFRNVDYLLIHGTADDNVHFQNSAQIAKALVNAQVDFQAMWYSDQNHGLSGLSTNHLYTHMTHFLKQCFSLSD

These are yes or no findings as the source states them, for the method shown. Some results given as binding are weak or reduced against the parent protein; the word gives no strength.

The assay addresses recombinant human FAPa extracellular domain (human) (UniProt Q12884). Description: library panning on coated antigen, positive colonies; members in Table 6.
B1: the binding result is “binds”.

Turning to B2, the binding result is listed as “binds”.

Consider B3, for which the binding entry was “binds”.

With B4, the binding result is given as “binds”.

Take B5: the binding entry is “binds”.

In the case of B6, the binding result is “binds”.

As for B7, the binding entry is listed as “binds”.

On to B8, for which the binding entry was “binds”.

With B9, the binding entry is “binds”.

Consider B10, for which the binding result is listed as “binds”.

Regarding B11, the binding entry was “binds”.

Turning to B12, the binding result is given as “binds”.

For B13, the binding result was “binds”.

In the case of B14, the binding entry was “binds”.

In the case of B15, the binding result was “binds”.

For B16, the binding result is on record as “binds”.

With B17, the binding result is listed as “binds”.

As for B18, the binding result is on record as “binds”.

For the molecule B19, the binding result is “binds”.

As to B20, the binding result was “binds”.

On to B21, for which the binding entry is on record as “binds”.

With B22, the binding result is reported as “binds”.

Consider B23, for which the binding entry was “binds”.

For B24, the binding result is recorded as “binds”.

In the case of B25, the binding entry is on record as “binds”.

For B26, the binding result is on record as “binds”.

As for B27, the binding result is given as “binds”.

Take B28: the binding entry is given as “binds”.

For B29, the binding entry is given as “binds”.

For the molecule B30, the binding result is reported as “binds”.

Turning to B31, the binding result is “binds”.

For B32, the binding result is listed as “binds”.
